Here are results for twelve molecules from US20210171576A1, “METHODS FOR TREATING CANCER WITH ACYLDEPSIPEPTIDE ANALOGS” (priority 2018, published 2021).

The subject of the series is mitochondrial proteins of HEK293 T-REx cells. Description: Mitochondrial proteome profiling for WT and CLPP^−/− (fold change CLPP^−/−/WT). Details: species or system human. To be noted: MaxQuant total peptide ion intensity.
[1] abbreviates: fold change of mitochondrial protein detected in CLPP knockout compared to WT HEK293 T-REx cells.

B1: PMPCB (protein, UniProt O75439 44-489, looked up)
Mitochondrial-processing …: STQAATQVVLNVPETRVTCLESGLRVASEDSGLSTCTVGLWIDAGSRYENEKNNGTAHFLEHMAFKGTKKRSQLDLELEIENMGAHLNAYTSREQTVYYAKAFSKDLPRAVEILADIIQNSTLGEAEIERERGVILREMQEVETNLQEVVFDYLHATAYQNTALGRTILGPTENIKSISRKDLVDYITTHYKGPRIVLAAAGGVSHDELLDLAKFHFGDSLCTHKGEIPALPPCKFTGSEIRVRDDKMPLAHLAIAVEAVGWAHPDTICLMVANTLIGNWDRSFGGGMNLSSKLAQLTCHGNLCHSFQSFNTSYTDTGLWGLYMVCESSTVADMLHVVQKEWMRLCTSVTESEVARARNLLKTNMLLQLDGSTPICEDIGRQMLCYNRRIPIPELEARIDAVNAETIREVCTKYIYNRSPAIAAVGPIKQLPDFKQIRSNMCWLRD
As for B1, the “Avg. fold change (CLPP KO/WT)” value under setting [1] was 2.47.

B2: PRDX2 (protein, UniProt P32119 2-198, looked up)
Peroxiredoxin-2: ASGNARIGKPAPDFKATAVVDGAFKEVKLSDYKGKYVVLFFYPLDFTFVCPTEIIAFSNRAEDFRKLGCEVLGVSVDSQFTHLAWINTPRKEGGLGPLNIPLLADVTRRLSEDYGVLKTDEGIAYRGLFIIDGKGVLRQITVNDLPVGRSVDEALRLVQAFQYTDEHGEVCPAGWKPGSDTIKPNVDDSKEYFSKHN
Turning to B2, the “Avg. fold change (CLPP KO/WT)” value under setting [1] is −9.17.

B3: PRDX4 (protein, UniProt Q13162 38-271, looked up)
Peroxiredoxin-4: WETEERPRTREEECHFYAGGQVYPGEASRVSVADHSLHLSKAKISKPAPYWEGTAVIDGEFKELKLTDYRGKYLVFFFYPLDFTFVCPTEIIAFGDRLEEFRSINTEVVACSVDSQFTHLAWINTPRRQGGLGPIRIPLLSDLTHQISKDYGVYLEDSGHTLRGLFIIDDKGILRQITLNDLPVGRSVDETLRLVQAFQYTDKHGEVCPAGWKPGSETIIPDPAGKLKYFDKLN
Take B3: the “Avg. fold change (CLPP KO/WT)” value under setting [1] is on record as −2.49.

B4: PYCR2 (protein, UniProt Q96C36 2-320, looked up)
Pyrroline-5-carboxylate …: SVGFIGAGQLAYALARGFTAAGILSAHKIIASSPEMNLPTVSALRKMGVNLTRSNKETVKHSDVLFLAVKPHIIPFILDEIGADVQARHIVVSCAAGVTISSVEKKLMAFQPAPKVIRCMTNTPVVVQEGATVYATGTHALVEDGQLLEQLMSSVGFCTEVEEDLIDAVTGLSGSGPAYAFMALDALADGGVKMGLPRRLAIQLGAQALLGAAKMLLDSEQHPCQLKDNVCSPGGATIHALHFLESGGFRSLLINAVEASCIRTRELQSMADQEKISPAALKKTLLDRVKLESPTVSTLTPSSPGKLLTRSLALGGKKD
On to B4, for which the “Avg. fold change (CLPP KO/WT)” value ([…]) was −2.75.

B5: PRDX5 (protein, UniProt P30044 53-214, looked up)
Peroxiredoxin-5, mitochondrial: MAPIKVGDAIPAVEVFEGEPGNKVNLAELFKGKKGVLFGVPGAFTPGCSKTHLPGFVEQAEALKAKGVQVVACLSVNDAFVTGEWGRAHKAEGKVRLLADPTGAFGKETDLLLDDSLVSIFGNRRLKRFSMVVQDGIVKALNVEPDGTGLTCSLAPNIISQL
As for B5, the “Avg. fold change (CLPP KO/WT)” value under setting [1] is reported as 2.38.

B6: PNPT1 (protein, UniProt Q8TCS8 46-783, looked up)
Polyribonucleotide …: AVAVDLGNRKLEISSGKLARFADGSAVVQSGDTAVMVTAVSKTKPSPSQFMPLVVDYRQKAAAAGRIPTNYLRREIGTSDKEILTSRIIDRSIRPLFPAGYFYDTQVLCNLLAVDGVNEPDVLAINGASVALSLSDIPWNGPVGAVRIGIIDGEYVVNPTRKEMSSSTLNLVVAGAPKSQIVMLEASAENILQQDFCHAIKVGVKYTQQIIQGIQQLVKETGVTKRTPQKLFTPSPEIVKYTHKLAMERLYAVFTDYEHDKVSRDEAVNKIRLDTEEQLKEKFPEADPYEIIESFNVVAKEVFRSIVLNEYKRCDGRDLTSLRNVSCEVDMFKTLHGSALFQRGQTQVLCTVTFDSLESGIKSDQVITAINGIKDKNFMLHYEFPPYATNEIGKVTGLNRRELGHGALAEKALYPVIPRDFPFTIRVTSEVLESNGSSSMASACGGSLALMDSGVPISSAVAGVAIGLVTKTDPEKGEIEDYRLLTDILGIEDYNGDMDFKIAGTNKGITALQADIKLPGIPIKIVMEAIQQASVAKKEILQIMNKTISKPRASRKENGPVVETVQVPLSKRAKFVGPGGYNLKKLQAETGVTISQVDEETFSVFAPTPSAMHEARDFITEICKDDQEQQLEFGAVYTATITEIRDTGVMVKLYPNMTAVLLHNTQLDQRKIKHPTALGLEVGQEIQVKYFGRDPADGRMRLSRKVLQSPATTVVRTLNDRSSIVMGEPISQSSSNSQ
As to B6, under setting [1], the “Avg. fold change (CLPP KO/WT)” value is −1.56.

B7: QRSL1 (protein, UniProt Q9H0R6 1-528, looked up)
Glutamyl-tRNA(Gln) …: MLGRSLREVSAALKQGQITPTELCQKCLSLIKKTKFLNAYITVSEEVALKQAEESEKRYKNGQSLGDLDGIPIAVKDNFSTSGIETTCASNMLKGYIPPYNATVVQKLLDQGALLMGKTNLDEFAMGSGSTDGVFGPVKNPWSYSKQYREKRKQNPHSENEDSDWLITGGSSGGSAAAVSAFTCYAALGSDTGGSTRNPAAHCGLVGFKPSYGLVSRHGLIPLVNSMDVPGILTRCVDDAAIVLGALAGPDPRDSTTVHEPINKPFMLPSLADVSKLCIGIPKEYLVPELSSEVQSLWSKAADLFESEGAKVIEVSLPHTSYSIVCYHVLCTSEVASNMARFDGLQYGHRCDIDVSTEAMYAATRREGFNDVVRGRILSGNFFLLKENYENYFVKAQKVRRLIANDFVNAFNSGVDVLLTPTTLSEAVPYLEFIKEDNRTRSAQDDIFTQAVNMAGLPAVSIPVALSNQGLPIGLQFIGRAFCDQQLLTVAKWFEKQVQFPVIQLQELMDDCSAVLENEKLASVSLKQ
For B7, the “Avg. fold change (CLPP KO/WT)” value under setting [1] is recorded as −2.45.

B8: RPUSD3 (protein, UniProt Q6P087 26-351, looked up)
Mitochondrial mRNA …: LGVRPVPEDAGFGTEARHQRQPRGSCQRSGPLGDQPFAGLLPKNLSREELVDALRAAVVDRKGPLVTLNKPQGLPVTGKPGELTLFSVLPELSQSLGLREQELQVVRASGKESSGLVLLSSCPQTASRLQKYFTHARRAQRPTATYCAVTDGIPAASEGKIQAALKLEHIDGVNLTVPVKAPSRKDILEGVKKTLSHFRVVATGSGCALVQLQPLTVFSSQLQVHMVLQLCPVLGDHMYSARVGTVLGQRFLLPAENNKPQRQVLDEALLRRLHLTPSQAAQLPLHLHLHRLLLPGTRARDTPVELLAPLPPYFSRTLQCLGLRLQ
Take B8: the “Avg. fold change (CLPP KO/WT)” value under setting [1] was −3.49.

B9: POLDIP2 (protein, UniProt Q9Y2S7 52-368, looked up)
Polymerase delta-interacting …: SSRNRPEGKVLETVGVFEVPKQNGKYETGQLFLHSIFGYRGVVLFPWQARLYDRDVASAAPEKAENPAGHGSKEVKGKTHTYYQVLIDARDCPHISQRSQTEAVTFLANHDDSRALYAIPGLDYVSHEDILPYTSTDQVPIQHELFERFLLYDQTKAPPFVARETLRAWQEKNHPWLELSDVHRETTENIRVTVIPFYMGMREAQNSHVYWWRYCIRLENLDSDVVQLRERHWRIFSLSGTLETVRGRGVVGREPVLSKEQPAFQYSSHVSLQASSGHMWGTFRFERPDGSHFDVRIPPFSLESNKDEKTPPSGLHW
For the molecule B9, the “Avg. fold change (CLPP KO/WT)” value under setting [1] turned out to be 4.89.

B10: SARS2 (protein, UniProt Q9NP81 35-518, looked up)
Serine--tRNA ligase, …: TTEKRNRNLLYEYAREGYSALPQLDIERFCACPEEAAHALELRKGELRSADLPAIISTWQELRQLQEQIRSLEEEKAAVTEAVRALLANQDSGEVQQDPKYQGLRARGREIRKELVHLYPREAQLEEQFYLQALKLPNQTHPDVPVGDESQARVLHMVGDKPVFSFQPRGHLEIGEKLDIIRQKRLSHVSGHRSYYLRGAGALLQHGLVNFTFNKLLRRGFTPMTVPDLLRGAVFEGCGMTPNANPSQIYNIDPARFKDLNLAGTAEVGLAGYFMDHTVAFRDLPVRMVCSSTCYRAETNTGQEPRGLYRVHHFTKVEMFGVTGPGLEQSSQLLEEFLSLQMEILTELGLHFRVLDMPTQELGLPAYRKFDIEAWMPGRGRFGEVTSASNCTDFQSRRLHIMFQTEAGELQFAHTVNATACAVPRLLIALLESNQQKDGSVLVPPALQSYLGTDRITAPTHVPLQYIGPNQPRKPGLPGQPAVS
As to B10, the “Avg. fold change (CLPP KO/WT)” value ([…]) was −1.56.

B11: PMPCA (protein, UniProt Q10713 34-525, looked up)
Mitochondrial-processing …: SSGGAYPNIPLSSPLPGVPKPVFATVDGQEKFETKVTTLDNGLRVASQNKFGQFCTVGILINSGSRYEAKYLSGIAHFLEKLAFSSTARFDSKDEILLTLEKHGGICDCQTSRDTTMYAVSADSKGLDTVVALLADVVLQPRLTDEEVEMTRMAVQFELEDLNLRPDPEPLLTEMIHEAAYRENTVGLHRFCPTENVAKINREVLHSYLRNYYTPDRMVLAGVGVEHEHLVDCARKYLLGVQPAWGSAEAVDIDRSVAQYTGGIAKLERDMSNVSLGPTPIPELTHIMVGLESCSFLEEDFIPFAVLNMMMGGGGSFSAGGPGKGMFSRLYLNVLNRHHWMYNATSYHHSYEDTGLLCIHASADPRQVREMVEIITKEFILMGGTVDTVELERAKTQLTSMLMMNLESRPVIFEDVGRQVLATRSRKLPHELCTLIRNVKPEDVKRVASKMLRGKPAVAALGDLTDLPTYEHIQTALSSKDGRLPRTYRLFR
Regarding B11, under setting [1], the “Avg. fold change (CLPP KO/WT)” value is −2.71.

B12: PITRM1 (protein, UniProt Q5JRX3 29-1037, looked up)
Presequence protease, …: NSNRACERALQYKLGDKIHGFTVNQVTSVPELFLTAVKLTHDDTGARYLHLAREDTNNLFSVQFRTTPMDSTGVPHILEHTVLCGSQKYPCRDPFFKMLNRSLSTFMNAFTASDYTLYPFSTQNPKDFQNLLSVYLDATFFPCLRELDFWQEGWRLEHENPSDPQTPLVFKGVVFNEMKGAFTDNERIFSQHLQNRLLPDHTYSVVSGGDPLCIPELTWEQLKQFHATHYHPSNARFFTYGNFPLEQHLKQIHEEALSKFQKIEPSTVVPAQTPWDKPREFQITCGPDSFATDPSKQTTISVSFLLPDITDTFEAFTLSLLSSLLTSGPNSPFYKALIESGLGTDFSPDVGYNGYTREAYFSVGLQGIAEKDIETVRSLIDRTIDEVVEKGFEDDRIEALLHKIEIQMKHQSTSFGLMLTSYIASCWNHDGDPVELLKLGNQLAKFRQCLQENPKFLQEKVKQYFKNNQHKLTLSMRPDDKYHEKQAQVEATKLKQKVEALSPGDRQQIYEKGLELRSQQSKPQDASCLPALKVSDIEPTIPVTELDVVLTAGDIPVQYCAQPTNGMVYFRAFSSLNTLPEELRPYVPLFCSVLTKLGCGLLDYREQAQQIELKTGGMSASPHVLPDDSHMDTYEQGVLFSSLCLDRNLPDMMQLWSEIFNNPCFEEEEHFKVLVKMTAQELANGIPDSGHLYASIRAGRTLTPAGDLQETFSGMDQVRLMKRIAEMTDIKPILRKLPRIKKHLLNGDNMRCSVNATPQQMPQTEKAVEDFLRSIGRSKKERRPVRPHTVEKPVPSSSGGDAHVPHGSQVIRKLVMEPTFKPWQMKTHFLMPFPVNYVGECIRTVPYTDPDHASLKILARLMTAKFLHTEIREKGGAYGGGAKLSHNGIFTLYSYRDPNTIETLQSFGKAVDWAKSGKFTQQDIDEAKLSVFSTVDAPVAPSDKGMDHFLYGLSDEMKQAHREQLFAVSHDKLLAVSDRYLGTGKSTHGLAILGPENPKIAKDPSWIIQ
In the case of B12, the “Avg. fold change (CLPP KO/WT)” value under setting [1] is on record as 1.55.
